# PubChem BioAssay AID1259424, University of Nebraska Medical Center, 2018
# Aim: 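Rank knockdowns across the genome by resemblance to the KSR1 depletion profile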 (primary screen)
# Cells: human HCT116 colon cancer cells
# Reagents: siRNA pool against human genes, 50 nM
# Measured: 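Log2 levels of six mRNAs (branched-DNA multiplex), adjusted by two reference genes and the non-targeting median, then scored against the average KSR1 knockdown pattern as Pearson r and euclidean distance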
# Direction: mean correlation with KSR1 profile and KSR1 correlation: higher = expression change more like KSR1 knockdown; mean distance from KSR1 profile: higher = expression change less like KSR1 knockdown
# The whole screen tested about 14,000 reagents; below is an unselected part. 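Higher correlation or smaller distance means closer resemblance to KSR1 loss; control wells, including KSR1 knockdowns, recur on many plates.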 Reagent sequences are not shown. Not stated in the record: the time to read-out.
gene symbol,mean correlation with KSR1 profile,mean distance from KSR1 profile,"KSR1 correlation, replicate 1","KSR1 correlation, replicate 2","KSR1 correlation, replicate 3"
TLK1,0.503,1.56,0.609,0.519,0.256
CELF6,-0.226,3.64,-0.0377,-0.353,-0.401
SUFU,0.175,1.63,0.21,0.442,0.193
APOA4,0.279,1.65,0.23,0.225,0.203
MYO5C,0.346,1.18,0.378,0.0756,0.159
FLRT1,-0.564,2.5,0.0287,-0.607,-0.766
EXOSC9,0.581,1.37,0.57,0.796,0.143
TNK1,-0.172,2.17,-0.201,0.182,-0.526
ADISSP,-0.521,2.42,-0.293,-0.671,-0.54
PHGDH,0.25,1.09,0.316,0.0426,0.203
ADPGK,-0.481,1.41,-0.361,0.409,-0.544
ZBTB22,0.744,0.852,0.327,0.767,0.775
PPIL1,-0.274,2.5,-0.416,-0.0754,-0.368
PIK3C2B,0.645,2.16,0.806,0.548,0.501
TMX1,0.493,1.73,0.378,0.327,0.577
MRPS18C,-0.615,3.43,-0.334,-0.533,-0.482
SLC45A4,0.144,1.58,-0.00206,0.336,0.344
TPBG,-0.565,2.88,-0.461,-0.588,-0.711
RFNG,-0.0709,1.16,-0.175,0.254,0.262
ZNF226,-0.54,3.99,-0.47,-0.501,-0.615
CA8,-0.348,3.34,-0.276,-0.358,-0.577
MAGEA8,-0.585,3.53,-0.506,-0.656,-0.571

The list goes on (4 carried over from the part before).
gene symbol,mean correlation with KSR1 profile,mean distance from KSR1 profile,"KSR1 correlation, replicate 1","KSR1 correlation, replicate 2","KSR1 correlation, replicate 3"
RFNG,-0.0709,1.16,-0.175,0.254,0.262
ZNF226,-0.54,3.99,-0.47,-0.501,-0.615
CA8,-0.348,3.34,-0.276,-0.358,-0.577
MAGEA8,-0.585,3.53,-0.506,-0.656,-0.571
AKR1B1,-0.531,1.41,-0.854,0.0892,-0.392
HPN,-0.136,2.36,-0.186,-0.332,-0.0347
DAZL,-0.111,2.55,-0.202,-0.0997,-0.248
NUDT4,0.929,1.29,0.839,0.973,0.942
C8orf44,-0.418,2.87,-0.463,-0.463,-0.429
CERS1,0.901,1.58,0.941,0.849,0.711
SORBS3,-0.866,2.19,-0.78,-0.89,-0.805
GEM,0.507,2.11,0.708,0.204,0.127
TOGARAM1,-0.0565,2.49,-0.147,-0.0885,0.011
C19orf44,0.901,2.44,0.858,0.87,0.882
PIK3R4,0.0226,2.87,0.334,-0.0686,-0.146
SOBP,0.279,1.92,0.298,0.184,0.26
